Reference: PubChem BioAssay AID1508597 (Cure First, 2020)
This is an unselected part of the about 2,100 reagents, in one setting of the screen. 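Calls flag viability under 80% in either arm, not effects specific to rucaparib; the reference for percent is not stated.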 The record does not give: the 100% reference.

Assay: 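Genes whose silencing sensitises or protects ovarian cancer cells against rucaparib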 (primary screen)
Cells: human ovarian carcinoma lines grown from tumours: OCI-P5x (papillary serous) and OCI-C5x (clear cell)
Reagents: siRNA pool against human genes, 1.25 pmol siRNA per well
Time to read-out: 72 h or 96 h, depending on the cell culture
Treatment: rucaparib 20 µM (about IC30) or vehicle, present until read-out
Rucaparib or vehicle: Vehicle
Cell line: OCI-C5x (clear cell)
Measurement: 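ATP luminescence measured at 72 or 96 h according to the culture, then normalised and expressed as percent viability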
Direction: viability, normalised: higher = more viable cells remaining
Active means: 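Active when normalised viability falls below 80 percent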
Meaning of the calls: active = viability under 80%; inactive = viability 80% or more

| gene | technical replicate | viability, normalised (%) | Call |
| --- | --- | --- | --- |
| PRKAR2B | 1 | 118 | inactive |
| PRKAR2B | 2 | 93.8 | inactive |
| PRKAR2B | 3 | 72.5 | active |
| PGGT1B (protein geranylgeranyltransferase type I subunit beta) | 1 | 38.7 | active |
| PGGT1B (protein geranylgeranyltransferase type I subunit beta) | 2 | 39.9 | active |
| PGGT1B (protein geranylgeranyltransferase type I subunit beta) | 3 | 48.5 | active |
| GK2 (glycerol kinase 2) | 1 | 37.5 | active |
| GK2 (glycerol kinase 2) | 2 | 35.8 | active |
| GK2 (glycerol kinase 2) | 3 | 29.6 | active |
| PLCZ1 (phospholipase C zeta 1) | 1 | 15.1 | active |
| PLCZ1 (phospholipase C zeta 1) | 2 | 60.4 | active |
| PLCZ1 (phospholipase C zeta 1) | 3 | 43.9 | active |
| PIWIL4 (piwi like RNA-mediated gene silencing 4) | 1 | 41.1 | active |
| PIWIL4 (piwi like RNA-mediated gene silencing 4) | 2 | 58.6 | active |
| PIWIL4 (piwi like RNA-mediated gene silencing 4) | 3 | 49.6 | active |
| NEIL3 (nei like DNA glycosylase 3) | 1 | 58.6 | active |
| NEIL3 (nei like DNA glycosylase 3) | 2 | 52.5 | active |
| NEIL3 (nei like DNA glycosylase 3) | 3 | 38 | active |
| RSF1 (remodeling and spacing factor 1) | 1 | 58.6 | active |
| RSF1 (remodeling and spacing factor 1) | 2 | 48.3 | active |
| RSF1 (remodeling and spacing factor 1) | 3 | 49.6 | active |
| PAK2 (p21 (RAC1) activated kinase 2) | 1 | 130 | inactive |
| PAK2 (p21 (RAC1) activated kinase 2) | 2 | 77.2 | active |
| PAK2 (p21 (RAC1) activated kinase 2) | 3 | 70.6 | active |
| RAD51B (RAD51 paralog B) | 1 | 50.1 | active |
| RAD51B (RAD51 paralog B) | 2 | 51.2 | active |
| RAD51B (RAD51 paralog B) | 3 | 46.6 | active |
| FOXP3 (forkhead box P3) | 1 | 49.5 | active |
| FOXP3 (forkhead box P3) | 2 | 61.5 | active |
| FOXP3 (forkhead box P3) | 3 | 53.8 | active |
| NTPCR (nucleoside-triphosphatase, cancer-related) | 1 | 53.2 | active |
| NTPCR (nucleoside-triphosphatase, cancer-related) | 2 | 60.4 | active |
| NTPCR (nucleoside-triphosphatase, cancer-related) | 3 | 75.1 | active |
| RAD23A (RAD23 nucleotide excision repair protein A) | 1 | 22.2 | active |
| RAD23A (RAD23 nucleotide excision repair protein A) | 2 | 26.2 | active |
| RAD23A (RAD23 nucleotide excision repair protein A) | 3 | 47.1 | active |
| PFKFB4 (6-phosphofructo-2-kinase/fructose-2,6-biphosphatase 4) | 1 | 57.4 | active |
| PFKFB4 (6-phosphofructo-2-kinase/fructose-2,6-biphosphatase 4) | 2 | 69.2 | active |
| PFKFB4 (6-phosphofructo-2-kinase/fructose-2,6-biphosphatase 4) | 3 | 48.1 | active |
| TARBP2 (TARBP2 subunit of RISC loading complex) | 1 | 43.5 | active |
| TARBP2 (TARBP2 subunit of RISC loading complex) | 2 | 47.1 | active |
| TARBP2 (TARBP2 subunit of RISC loading complex) | 3 | 53.5 | active |
| BCR (BCR activator of RhoGEF and GTPase) | 1 | 72.9 | active |
| BCR (BCR activator of RhoGEF and GTPase) | 2 | 71.7 | active |
| BCR (BCR activator of RhoGEF and GTPase) | 3 | 57.5 | active |
| RPL3 (ribosomal protein L3) | 1 | 28.1 | active |
| RPL3 (ribosomal protein L3) | 2 | 31.2 | active |
| RPL3 (ribosomal protein L3) | 3 | 16.7 | active |
| CIT (citron rho-interacting serine/threonine kinase) | 1 | 63 | active |
| CIT (citron rho-interacting serine/threonine kinase) | 2 | 68.2 | active |
| CIT (citron rho-interacting serine/threonine kinase) | 3 | 68.4 | active |
| OGA (O-GlcNAcase) | 1 | 27.3 | active |
| OGA (O-GlcNAcase) | 2 | 37.1 | active |
| OGA (O-GlcNAcase) | 3 | 37.4 | active |
| HDGF (heparin binding growth factor) | 1 | 58.8 | active |
| HDGF (heparin binding growth factor) | 2 | 53.7 | active |
| HDGF (heparin binding growth factor) | 3 | 55.9 | active |

Ordered by “viability, normalised (%)” (descending): 6 of the entries above
| gene | technical replicate | viability, normalised (%) | Call |
| --- | --- | --- | --- |
| NTPCR (nucleoside-triphosphatase, cancer-related) | 3 | 75.1 | active |
| NTPCR (nucleoside-triphosphatase, cancer-related) | 2 | 60.4 | active |
| FOXP3 (forkhead box P3) | 3 | 53.8 | active |
| NTPCR (nucleoside-triphosphatase, cancer-related) | 1 | 53.2 | active |
| RAD23A (RAD23 nucleotide excision repair protein A) | 2 | 26.2 | active |
| RAD23A (RAD23 nucleotide excision repair protein A) | 1 | 22.2 | active |
